Among all 52,000 sequences or so, about 210 (0.4%) were called active.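 The calls were made as follows: active = gene whose silencing raises cell survival under the drug, median off-target-corrected z-score across its silencing RNAs 2 or more; inactive = the rest.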 This is one part of the list.
experiment: Resistance to Poly (ADP-Ribose) Polymerase inhibitor: Gene Identification via Genome-wide siRNA Screen; conditions: mouse BRCA2 R2336H ES cells, olaparib, CellTiter-Glo viability; stronger effect = higher value
Outline: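 Genome-wide siRNA screen (3 siRNAs/gene, 20 nM) in mouse ES cells carrying hypomorphic BRCA2 R2336H; olaparib 500 nM added 48 h post-transfection, CellTiter-Glo viability 72 h later. Normalized to plate-median negative control; MAD z-scores, gene median, seed-adjusted.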

Sequence	z-score
CCGGAUCCAGAAUACAUUATT against Laf4	inactive: 1.41
GGUGGCUCAAUUCUUGAAGTT against Tagln	inactive: -0.445
CCAAACAGUUCACAAUUCCTT against 1500003O22Rik	inactive: 0.363
CCUCAAGGAUAAUUAUUACTT against 4933434I20Rik	inactive: 0.375
GCCCUUGCCUCUGUAGAUGTT against Olfr857	inactive: 1.36
GGAAAGCAAAAGUUUACAATT against Mdh1b	inactive: 1.29
GGCCGUGUGCAUCUUUGUGTT against Gpr20	inactive: 1.38
GGAAAUCUUAACUAGUAUGTT against Nutf2	inactive: -0.269
GGAUGUGGCUGAAUCUCUGTT against Zfp99	inactive: 0.191
AGGCACGUCUGAUUGCAUGTT against LOC432823	inactive: 1.03
GGAUCGAACUGAGAACUUUTT against Leng4	inactive: 0.253
GGAGUUUCAACAAAGAAGCTT against Dock3	inactive: 0.783
GGAAGGAUCAUUCUGUGAATT against Ly6h	inactive: -1.74
GCCGGAGUUAUGAAAGGAGTT against Fusip1	inactive: 0.619
CUGCUAUGACGACAACUACTT against Ngfg	inactive: 0.254
GGUCACAAUGAAGGUCAAGTT against Plxdc1	inactive: -0.326
GCGGCUAAAUAUCAACACUTT against 2310005P05Rik	inactive: 1.7
GGGAUCUAAGAAAGCCAUCTT against Hist1h2bb	inactive: -0.782
GUACGGCAACAUGACCCAGTT against Ii	inactive: 1.25
GGACAUGUGAAGAUAAACGTT against Mug1	inactive: -0.178
CCGGAAAAAGGAUAAGACATT against Rgs6	inactive: 0.495
GGGCCAAAUUUGAAUCCCUTT against Dscr1	inactive: 0.608
GCUAUUGGAUGAGCGAUUGTT against Crlf3	inactive: -0.73
GGAUUCAGAAUCCAUCUCUTT against 5530600A18Rik	inactive: 1.72
GCAUGCAUGGUACAAUUUUTT against Olfr1166	inactive: -0.964
GGACAAGGAAAAGUCUUUATT against 2810403B08Rik	inactive: -0.991

Sequence	z-score
GGUAGUGGACAGUUUUGACTT against Mrpl55	inactive: 1.83
GGCUUCUUUUGCUACACCUTT against Olfr729	inactive: -0.7
CCUGGAACUUGUCUUUUUUTT against Olfr1388	inactive: 1.25
CCAUCAUUGUUCUUGCAAGTT against Olfr1387	inactive: 0.403
CCACUUUAGCUCCUUUAAGTT against BC037432	inactive: 0.0326
GGUUUUCAAAGUCUUUUACTT against 9130017A15Rik	inactive: -0.131
GCCGAUGGAUUCCUCUCAUTT against Rhot1	inactive: 1.87
GGCAGGACAAAACACCAAATT against C86302	inactive: -0.277
GGAUGUUUCGAAUUAAGAGTT against Uqcrb	inactive: 0.183
GGUGAAAUAGCUAAAUCAUTT against Usp15	active: -0.572
GGCCUUUAACAUCCGCCUATT against Ddb1	inactive: -0.944
CGCGCAUUGUGUUGCACUATT against 4930415J05Rik	inactive: -0.265
GGUGGCAUGUCAUUGCUUCTT against Igf2	inactive: 1.16
GCACUGUGAAUGCUAUACCTT against Suv420h2	inactive: 1.64
GGUUCUUUUCCUGUUUUACTT against Olfr434	inactive: -0.00597
GGAACAACUGAAAAUGAAGTT against 1110018J12Rik	inactive: -0.195
UCGCCUACGGACUGUUCGGTT against Kcnk12	inactive: 0.123
GCACUGCCCAACAACCAUUTT against Scamp4	inactive: -0.0209
GGAGAAAAUGAUAACAUGCTT against Mto1	inactive: -0.00142
GGAACAUGGUGUAAAUUCUTT against Serpinb9e	inactive: -0.0827
GGAUCAUAGAGCAUCUUGATT against BC010462	inactive: 0.679
GGUGUGAUUGAAGAAGCGGTT against Gpr37	inactive: -1.3
GGAAUUCUUUGGACUGAAUTT against Ccr5	inactive: -1.72
GCCACCAAAUUUAUGGUAUTT against 1700022N24Rik	inactive: -1.58
CGCUGCAUUAAAGACUAAATT against Kcnj10	inactive: -0.905
GCCAAGUAUUUUAAUGCAATT against 0610025O11Rik	inactive: 0.518

Sequence	z-score
GGACUUUCGUGAGAGAUUUTT against Fpr-rs2	inactive: -0.874
GGGUUUUGUGUAAAAGGUUTT against Olfr584	active: 1.72
GGAGAAUCCCAGCAACUCUTT against Sall2	inactive: 0.904
GGACAUAAUCAAAGACAUCTT against Ddc	inactive: 0.399
CCUUCCAAGAUCAAUAAGATT against Epb4.2	inactive: 0.324
GGGUCUCAUACCUAAGGACTT against Wnt3a	inactive: 0.391
GGUGGUGACUAAGAAAUUCTT against Prps1	inactive: -0.221
GGAGCUUUGCUUAGCACUGTT against MGC67311	inactive: 1.73
GGAAGAAUUCACAAAGAUGTT against Snx6	inactive: -0.343
GGUUUCCUUUAUCAAGAAGTT against 3300001G02Rik	inactive: 1.44
GGUGCCCAUAAUAGCCAUCTT against Polr2c	inactive: -0.0259
GGCUUCAAAGGCAAAGUUCTT against Fbf1	inactive: -0.802
GCUUUUAAAGCAUGGGCAGTT against Alb1	inactive: 1.16
GGAUCUUCGUAGAAUGACATT against LOC434008	inactive: -1.14
GGCAUGAAAGGUGUCAUACTT against Zfp119	inactive: -0.64
CGACAAAUAUGAGAGACUCTT against Tsnax	inactive: -1
GGAUCUGAAGAACAAGAUCTT against Krt1-17	inactive: 1.26
GGUACUUUAGACAAGAGAGTT against BC017643	inactive: -0.0232
GGAUUUAGUUCAGAUUUGUTT against Ubp1	inactive: -0.523
GGAACUGAAAAACUCAACUTT against Evi2a	inactive: -1.38
CGAUCUUAACUCAUUCUUUTT against 9430056A22Rik	inactive: 1.47
GGAAUCUCAAGAGCUACAGTT against Ccl7	inactive: 0.211
GUAUAUUACCGUCGGAAUATT against 1810046I24Rik	inactive: 0.357
CCUCAGCUAAUGAAACUUCTT against 4932411L21Rik	inactive: 0.0399
GCCUCUAAGCUACACUACATT against Olfr1289	inactive: 1.9
GGAACCUACCUCACCUUUGTT against Fscn3	inactive: -1.15

Sequence	z-score
GGUGGUGCUUUACGUCAAATT against Bzw2	inactive: -0.314
CCUACUUAGUGUCAGAAGATT against D6Mm5e	inactive: 1.2
GGACAUGGAGAUUAGAGUCTT against Tcl1b4	inactive: -0.528
CCUGGCCAUGUCGAAAGAUTT against Pla2g6	inactive: -1.71
GGUAAUGCAAACAUGCGGGTT against Lhfp	inactive: -0.556
GGGCUGGCAGAAUAGCAUCTT against Foxl2	inactive: -1.02
CCGAAAGAUCAGCACAUCCTT against Olfr24	inactive: 1.31
GGUGUGUAAUGUGCGUGAGTT against Ephb3	inactive: 0.169
GGGAUGUUUAGGUCACCUUTT against 4933434M16Rik	inactive: -0.579
GGUGUCCUGGCUGUAUGCATT against Gfra4	inactive: 1.77
GGCCAGUUCUCGUUUGGAATT against Dr1	inactive: 0.741
CCAGUUUGUACCAUUAUAGTT against Scospondin	inactive: 1.47
CCCUAAGGCAUUAUUAUUCTT against Nkd1	inactive: 1.11
GGUGUGCCUAUGUUAUAGUTT against Slc13a5	inactive: 1.34
GGAAUUUGGUGACGACAAGTT against Ing4	inactive: 0.915
GCUUAUGAUGUAUUUCGUGTT against Ttpa	inactive: -1.16
GGCAAGCAAGCAUAUUAUCTT against D830013H23Rik	inactive: 0.358
GCUUGCUAGAUUGGUGUUGTT against Arhgap17	inactive: -0.419
GGAUUAGGAAUCACAGUAGTT against A130092J06Rik	inactive: -0.791
GGACAAGUUUGACUGUUACTT against BC022645	inactive: 0.613
GGGACCUUUCCUGACCUAUTT against 2700038C09Rik	inactive: 0.413
GCGUGUCACACUAUGAGUUTT against 4932416A11Rik	inactive: -1.37
GCCUAAGUUCAUUCUGAAATT against 3110023B02Rik	inactive: 0.877
GCCUGCCAACCAGCGUAAUTT against Pard6a	inactive: -1.13
CGAAGUGUUGGGAAGAUUATT against 4732406D01Rik	inactive: 1.41
GGAGAUGGUGCCAGAGAAGTT against Cfc1	inactive: -1.82

Some of the entries so far, field by field.
GGGACCUUUCCUGACCUAUTT against 2700038C09Rik
  z-score: inactive: 0.413
GCGUGUCACACUAUGAGUUTT against 4932416A11Rik
  z-score: inactive: -1.37
GCCUAAGUUCAUUCUGAAATT against 3110023B02Rik
  z-score: inactive: 0.877
GCCUGCCAACCAGCGUAAUTT against Pard6a
  z-score: inactive: -1.13

Reference: PubChem BioAssay AID1347423 (Functional Genomics Laboratory (NCATS/FGL), 2020)
